Data reported in patent US8586043B2, “Methods for treating breast cancer with inhibitors of neurotensin activation of NTSR1” (INSERM ( Institut National de la Sante et de la Recherche …, priority 2009, dated 2013).
For at least one compound, name, drawing or mass did not settle the structure.

System: NTS gene
Experiment: NTS transcript RT-PCR in HBEC after hormonal treatment
Format: cell-based, human
Conditions: 10 nM estradiol (E2), 48 h
Description: A) Left, one μg of total RNA from HBEC or whole gland were reverse-transcribed and a PCR experiment specific for NTS was performed. Right, one μg of total RNA from HBEC cells (control, treated with 10 nM estradiol (E2) with or without 1 μM ICI 182780) was reverse-transcribed. A PCR experiment was performed using specific primers for NTS and GAPDH.
The protocols for total RNA extraction, reverse-transcription reaction (RT), and PCR are documented in Souaze et al (Souaze F, Rostene W, Forgez P (1997) J. Biol. Chem. 272:10087-10094). RT was performed on 1 μg of total RNA using a specific NTSR1 primer (5′-[…]-3′ SEQ ID NO:3) or 50 pmol of oligo dT and oligo dN. The PCR amplification was performed on a 1:5 v/v of the RT reaction using 25 pmol of each primer 5′-[…]-3′ SEQ ID NO:4 and 5′-[…]-3′ SEQ ID NO:5 for NTSR1, and 5′-[…]-3′ SEQ ID NO:6 and 5′-[…]-3′ SEQ ID NO:7 for NTS, and 1 unit of Taq polymerase (Applied Biosystems, Courtaboeuf, France). The amplification profile consisted of denaturation at 94° C. for 30 s, annealing at 57° C. for 45 s, and extension at 72° C. for 45 s. The PCR cycle were preceded by denaturation at 95° C. for 15 min and were followed by a final extension at 72° C. for 7 min.
HBEC were synchronized for 40 h in Ham F10 phenol red free medium containing 20 μM lovastatin. Synchronization was stopped by adding 2 mM mevalonate to the hormone-containing medium. […]

## C[C@]12CC[C@@H]3c4ccc(O)cc4CC[C@H]3[C@@H]1CC[C@@H]2O [estradiol]
  NTS transcripts in HBEC exposed to estradiol: an enhancement of NTS transcripts was observed
